PubChem BioAssay AID504786 – Drosophila RNAi Screening Center | 2011

Assay: 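Fly genes required for HIF-dependent transcription when hypoxia is mimicked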 (primary screen)
Cell system: Drosophila S2 cells with a stable HIF luciferase reporter
Knock-down reagent: long dsRNA against Drosophila genes, about 0.2 µg dsRNA per well of a 384-well plate
Duration: three days of knock-down, then 20 h of DFO before reading
Challenge: desferrioxamine (DFO) at 100 µM, an iron chelator that mimics hypoxia, for 20 h
Measured: 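Firefly luciferase driven by the mouse ldh-a hypoxia-response element, measured after 20 h of 100 µM DFO; z-scores per plate, higher means more signal lost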
Direction: z-score: higher = stronger loss of HIF reporter signal
The screen tested about 21,000 reagents; below is a random part of those that have a named target and a result. 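Primary screen; positive scores mean lost reporter signal, so the sign may be inverted from the usual convention.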 Names joined by + are all predicted targets of the reagent. Not all columns of the deposit are shown. Reagent sequences are not shown.

What did the screen give for tj [SID104181803]?
z-score, replicate 1: -0.3

Which result is listed for CG34224 [SID104185061]?
z-score, replicate 1: 0.1

What is on record for CG12702 [SID104199279]?
z-score, replicate 1: -0.2

Which result is listed for TkR86C [SID104196672]?
z-score, replicate 1: -0.2

How did the screen score P32 [SID104186780]?
z-score, replicate 1: -0.2

How did the screen score CG6216 [SID104190398]?
z-score, replicate 1: -0.2

For Tmtc2 [SID104180064], what does the deposit list?
z-score, replicate 1: -0.3

For CG13334 [SID104186161], what was measured?
z-score, replicate 1: -0.3

With CG4712 [SID104186674], what was measured?
z-score, replicate 1: -0.1

How did the screen score bab1 [SID104188171]?
z-score, replicate 1: -0.4

Which result is listed for bab1 [SID104188501]?
z-score, replicate 1: 0.1

For Gs1 [SID104180545], what does the deposit list?
z-score, replicate 1: -0.3

For CG3491 [SID104181726], what was measured?
z-score, replicate 1: -0.3

With CG33695 + cana [SID104180955], how do the results read?
z-score, replicate 1: -0.5

With CG33695 + cana [SID104183295], what does the deposit list?
z-score, replicate 1: -0.3

With Baldspot [SID104189463], how do the results read?
z-score, replicate 1: -0.3

For CG3880 [SID104184220], how do the results read?
z-score, replicate 1: -0.2

How did the screen score Sec10 [SID104196845]?
z-score, replicate 1: -0.3

Which result is listed for sn [SID104198626]?
z-score, replicate 1: -0.3

What did the screen give for CG11786 [SID104194181]?
z-score, replicate 1: -0.4

For Polr2I [SID104196624], what was measured?
z-score, replicate 1: 4.3

Which result is listed for CG15021 [SID104188267]?
z-score, replicate 1: -0.2

How did the screen score Rph [SID104197582]?
z-score, replicate 1: -0.3

With Recs1 [SID104196337], what was measured?
z-score, replicate 1: -0.3

What did the screen give for l(1)G0004 [SID104200278]?
z-score, replicate 1: -0.2

What did the screen give for CG12506 [SID104180139]?
z-score, replicate 1: -0.3

For Damm [SID104187185], what was measured?
z-score, replicate 1: -0.4

With CG3587 [SID104198333], what does the deposit list?
z-score, replicate 1: -0.3

What did the screen give for CG15734 [SID104199493]?
z-score, replicate 1: -0.3

For CG11474 [SID104183904], what was measured?
z-score, replicate 1: -0.3

How did the screen score CG9269 [SID104196257]?
z-score, replicate 1: -0.4

Which result is listed for Cpr11A [SID104199653]?
z-score, replicate 1: -0.3

For Spf30 [SID104191768], how do the results read?
z-score, replicate 1: 0

With CG2812 [SID104184111], how do the results read?
z-score, replicate 1: -0.4

For HSPBAP1 [SID104194359], how do the results read?
z-score, replicate 1: -0.3

What did the screen give for CG14196 [SID104199343]?
z-score, replicate 1: -0.3

With fdl [SID104187071], what does the deposit list?
z-score, replicate 1: -0.3

With UQCR-14L [SID104195080], what was measured?
z-score, replicate 1: -0.6

Which result is listed for Papss [SID104191038]?
z-score, replicate 1: -0.2

With Gld [SID104192387], what was measured?
z-score, replicate 1: -0.2

What did the screen give for kni [SID104191683]?
z-score, replicate 1: 0.1

For CG16935 [SID104186430], what was measured?
z-score, replicate 1: -0.2

For CG15160 [SID104182253], what does the deposit list?
z-score, replicate 1: -0.4

Which result is listed for CG13870 [SID104186221]?
z-score, replicate 1: 0.1

For Fpps [SID104187221], what does the deposit list?
z-score, replicate 1: -0.2

For Pka-C1 [SID104183191], what does the deposit list?
z-score, replicate 1: -0.3

For Spn100A [SID104194388], what does the deposit list?
z-score, replicate 1: -0.3

With CG7166 [SID104191601], what was measured?
z-score, replicate 1: -0.3

For CG8141 [SID104196179], what was measured?
z-score, replicate 1: 0

What did the screen give for Prx4 [SID104188460]?
z-score, replicate 1: -0.2

What is on record for CG34408 [SID104197525]?
z-score, replicate 1: -0.1
